# Data: the supplement of paper PMC12819154, “High-throughput peptide-centric local stability assay extends protein–ligand identification to membrane proteins, tissues and bacteria” (Nature Structural & Molecular Biology, 2025)
# Amino acid sequences for entries named in this document (tags omitted). A change or cut given only in a name is not applied to a line headed by its entry.
# UniProt Q8WYL5: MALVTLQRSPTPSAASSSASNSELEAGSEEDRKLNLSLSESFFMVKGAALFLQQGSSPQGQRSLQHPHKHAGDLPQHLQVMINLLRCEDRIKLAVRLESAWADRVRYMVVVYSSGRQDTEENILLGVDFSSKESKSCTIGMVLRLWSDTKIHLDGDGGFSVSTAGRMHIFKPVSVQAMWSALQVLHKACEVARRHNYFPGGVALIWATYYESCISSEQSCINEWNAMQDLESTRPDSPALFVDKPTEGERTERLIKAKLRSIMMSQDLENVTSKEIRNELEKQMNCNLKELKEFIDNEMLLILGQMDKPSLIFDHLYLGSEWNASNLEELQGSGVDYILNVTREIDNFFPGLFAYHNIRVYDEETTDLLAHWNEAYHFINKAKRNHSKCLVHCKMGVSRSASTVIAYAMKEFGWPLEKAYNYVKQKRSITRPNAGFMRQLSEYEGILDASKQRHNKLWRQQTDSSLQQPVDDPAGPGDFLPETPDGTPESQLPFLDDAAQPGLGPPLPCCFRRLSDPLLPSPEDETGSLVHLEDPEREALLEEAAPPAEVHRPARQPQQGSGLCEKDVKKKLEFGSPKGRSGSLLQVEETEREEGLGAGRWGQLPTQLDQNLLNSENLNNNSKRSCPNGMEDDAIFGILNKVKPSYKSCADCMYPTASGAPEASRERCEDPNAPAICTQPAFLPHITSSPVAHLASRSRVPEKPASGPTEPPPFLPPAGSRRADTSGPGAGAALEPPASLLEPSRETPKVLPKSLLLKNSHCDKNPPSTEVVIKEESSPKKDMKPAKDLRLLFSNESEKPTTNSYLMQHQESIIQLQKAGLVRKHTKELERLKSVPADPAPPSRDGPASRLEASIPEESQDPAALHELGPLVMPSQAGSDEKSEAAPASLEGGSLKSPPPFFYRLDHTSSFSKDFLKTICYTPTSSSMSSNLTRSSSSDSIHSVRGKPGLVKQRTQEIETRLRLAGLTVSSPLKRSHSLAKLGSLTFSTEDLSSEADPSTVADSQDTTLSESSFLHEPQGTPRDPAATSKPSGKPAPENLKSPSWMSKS
# UniProt Q8TD23: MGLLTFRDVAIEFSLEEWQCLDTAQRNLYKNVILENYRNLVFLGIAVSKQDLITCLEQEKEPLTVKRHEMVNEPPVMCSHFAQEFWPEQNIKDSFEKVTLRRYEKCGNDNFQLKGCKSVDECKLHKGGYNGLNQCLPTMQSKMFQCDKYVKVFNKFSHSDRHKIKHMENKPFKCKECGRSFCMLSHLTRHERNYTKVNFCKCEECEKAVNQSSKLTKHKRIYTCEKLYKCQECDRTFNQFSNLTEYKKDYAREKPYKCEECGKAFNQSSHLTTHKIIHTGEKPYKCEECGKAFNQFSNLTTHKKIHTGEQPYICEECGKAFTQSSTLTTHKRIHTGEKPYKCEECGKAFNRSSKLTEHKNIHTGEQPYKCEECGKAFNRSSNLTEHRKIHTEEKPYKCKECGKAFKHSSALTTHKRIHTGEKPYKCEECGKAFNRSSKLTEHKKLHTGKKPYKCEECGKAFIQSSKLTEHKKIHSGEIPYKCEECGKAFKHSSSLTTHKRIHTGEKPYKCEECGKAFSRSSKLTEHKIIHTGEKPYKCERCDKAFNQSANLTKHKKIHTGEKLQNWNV
# UniProt Q8WUQ7: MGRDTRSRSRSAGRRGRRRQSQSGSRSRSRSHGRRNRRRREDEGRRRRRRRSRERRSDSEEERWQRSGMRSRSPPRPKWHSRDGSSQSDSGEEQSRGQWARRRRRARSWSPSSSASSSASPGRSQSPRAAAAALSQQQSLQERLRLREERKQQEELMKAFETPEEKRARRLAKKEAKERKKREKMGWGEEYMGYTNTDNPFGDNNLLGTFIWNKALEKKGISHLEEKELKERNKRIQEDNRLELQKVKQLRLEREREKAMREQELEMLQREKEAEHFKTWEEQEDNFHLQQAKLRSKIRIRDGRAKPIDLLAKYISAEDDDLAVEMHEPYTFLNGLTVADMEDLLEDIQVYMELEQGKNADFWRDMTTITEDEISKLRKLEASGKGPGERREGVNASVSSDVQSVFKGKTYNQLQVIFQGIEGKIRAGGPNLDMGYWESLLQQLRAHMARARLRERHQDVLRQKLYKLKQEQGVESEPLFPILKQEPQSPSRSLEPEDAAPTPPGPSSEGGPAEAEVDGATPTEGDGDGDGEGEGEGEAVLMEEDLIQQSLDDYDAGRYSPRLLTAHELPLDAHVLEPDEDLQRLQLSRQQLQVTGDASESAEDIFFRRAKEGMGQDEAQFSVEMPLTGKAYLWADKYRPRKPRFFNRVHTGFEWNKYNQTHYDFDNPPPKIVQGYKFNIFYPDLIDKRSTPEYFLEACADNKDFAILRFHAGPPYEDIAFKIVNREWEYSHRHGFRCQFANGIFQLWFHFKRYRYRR
# UniProt Q8WXA3: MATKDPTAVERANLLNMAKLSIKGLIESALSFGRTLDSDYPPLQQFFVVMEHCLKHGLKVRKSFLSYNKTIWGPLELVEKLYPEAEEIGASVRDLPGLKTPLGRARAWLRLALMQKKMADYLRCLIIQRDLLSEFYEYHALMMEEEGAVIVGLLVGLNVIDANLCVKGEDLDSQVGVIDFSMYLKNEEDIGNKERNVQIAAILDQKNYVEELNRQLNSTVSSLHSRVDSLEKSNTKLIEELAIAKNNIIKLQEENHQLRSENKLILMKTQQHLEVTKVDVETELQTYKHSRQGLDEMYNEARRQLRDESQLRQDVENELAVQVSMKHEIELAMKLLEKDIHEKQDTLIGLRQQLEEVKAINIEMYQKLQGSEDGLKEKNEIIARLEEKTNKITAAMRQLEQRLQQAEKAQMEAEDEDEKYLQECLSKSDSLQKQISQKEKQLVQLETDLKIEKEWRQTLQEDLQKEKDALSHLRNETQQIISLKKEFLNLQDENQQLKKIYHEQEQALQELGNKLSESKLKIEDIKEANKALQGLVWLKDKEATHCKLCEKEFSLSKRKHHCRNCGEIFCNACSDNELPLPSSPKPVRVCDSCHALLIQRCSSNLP
# UniProt Q8TD10: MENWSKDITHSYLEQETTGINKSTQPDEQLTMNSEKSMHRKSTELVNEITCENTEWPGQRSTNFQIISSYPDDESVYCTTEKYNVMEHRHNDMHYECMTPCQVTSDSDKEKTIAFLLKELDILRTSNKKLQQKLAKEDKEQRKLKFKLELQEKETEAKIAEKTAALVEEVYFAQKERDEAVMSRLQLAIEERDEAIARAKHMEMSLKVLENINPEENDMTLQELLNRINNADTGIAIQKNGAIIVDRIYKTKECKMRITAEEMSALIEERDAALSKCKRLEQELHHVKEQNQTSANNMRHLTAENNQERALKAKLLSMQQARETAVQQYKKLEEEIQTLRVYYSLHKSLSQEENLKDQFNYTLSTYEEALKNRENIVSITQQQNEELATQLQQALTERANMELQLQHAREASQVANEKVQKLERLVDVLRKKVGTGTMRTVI
# UniProt Q8WVN8: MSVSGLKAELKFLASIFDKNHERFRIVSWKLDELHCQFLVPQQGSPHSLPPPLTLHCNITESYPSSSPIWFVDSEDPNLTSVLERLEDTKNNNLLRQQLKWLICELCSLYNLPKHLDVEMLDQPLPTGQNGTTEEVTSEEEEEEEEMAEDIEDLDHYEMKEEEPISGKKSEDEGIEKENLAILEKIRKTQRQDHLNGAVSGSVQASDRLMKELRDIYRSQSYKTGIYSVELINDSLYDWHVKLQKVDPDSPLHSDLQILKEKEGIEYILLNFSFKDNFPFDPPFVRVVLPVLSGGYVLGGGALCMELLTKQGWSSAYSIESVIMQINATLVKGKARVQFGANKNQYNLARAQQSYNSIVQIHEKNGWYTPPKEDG
# UniProt Q8WWY3: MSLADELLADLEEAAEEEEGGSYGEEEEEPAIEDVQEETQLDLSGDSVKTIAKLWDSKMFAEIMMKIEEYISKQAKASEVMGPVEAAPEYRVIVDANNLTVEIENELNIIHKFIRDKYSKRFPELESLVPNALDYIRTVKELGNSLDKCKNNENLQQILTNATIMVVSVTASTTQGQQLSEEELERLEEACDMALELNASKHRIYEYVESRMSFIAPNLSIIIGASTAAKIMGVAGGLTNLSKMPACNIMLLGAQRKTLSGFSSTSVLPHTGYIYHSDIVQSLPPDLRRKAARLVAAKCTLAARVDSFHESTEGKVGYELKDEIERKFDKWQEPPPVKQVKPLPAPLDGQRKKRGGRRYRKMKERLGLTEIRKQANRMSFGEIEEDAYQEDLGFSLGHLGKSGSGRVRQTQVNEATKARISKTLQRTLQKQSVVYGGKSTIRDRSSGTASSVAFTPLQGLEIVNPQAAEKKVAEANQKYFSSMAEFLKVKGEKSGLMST
# UniProt Q92759: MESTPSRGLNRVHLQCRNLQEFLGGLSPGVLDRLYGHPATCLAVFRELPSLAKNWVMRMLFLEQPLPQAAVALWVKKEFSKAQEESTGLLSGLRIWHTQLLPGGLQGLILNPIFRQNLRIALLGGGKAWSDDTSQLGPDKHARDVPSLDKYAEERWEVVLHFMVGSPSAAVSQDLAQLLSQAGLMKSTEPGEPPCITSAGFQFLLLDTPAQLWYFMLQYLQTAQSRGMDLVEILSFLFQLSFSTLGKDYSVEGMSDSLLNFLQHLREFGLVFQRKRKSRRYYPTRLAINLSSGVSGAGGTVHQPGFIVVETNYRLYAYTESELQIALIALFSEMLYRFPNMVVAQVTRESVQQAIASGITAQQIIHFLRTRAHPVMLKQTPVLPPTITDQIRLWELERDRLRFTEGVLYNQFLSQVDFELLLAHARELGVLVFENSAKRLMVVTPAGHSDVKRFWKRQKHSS
# UniProt Q8TCY9: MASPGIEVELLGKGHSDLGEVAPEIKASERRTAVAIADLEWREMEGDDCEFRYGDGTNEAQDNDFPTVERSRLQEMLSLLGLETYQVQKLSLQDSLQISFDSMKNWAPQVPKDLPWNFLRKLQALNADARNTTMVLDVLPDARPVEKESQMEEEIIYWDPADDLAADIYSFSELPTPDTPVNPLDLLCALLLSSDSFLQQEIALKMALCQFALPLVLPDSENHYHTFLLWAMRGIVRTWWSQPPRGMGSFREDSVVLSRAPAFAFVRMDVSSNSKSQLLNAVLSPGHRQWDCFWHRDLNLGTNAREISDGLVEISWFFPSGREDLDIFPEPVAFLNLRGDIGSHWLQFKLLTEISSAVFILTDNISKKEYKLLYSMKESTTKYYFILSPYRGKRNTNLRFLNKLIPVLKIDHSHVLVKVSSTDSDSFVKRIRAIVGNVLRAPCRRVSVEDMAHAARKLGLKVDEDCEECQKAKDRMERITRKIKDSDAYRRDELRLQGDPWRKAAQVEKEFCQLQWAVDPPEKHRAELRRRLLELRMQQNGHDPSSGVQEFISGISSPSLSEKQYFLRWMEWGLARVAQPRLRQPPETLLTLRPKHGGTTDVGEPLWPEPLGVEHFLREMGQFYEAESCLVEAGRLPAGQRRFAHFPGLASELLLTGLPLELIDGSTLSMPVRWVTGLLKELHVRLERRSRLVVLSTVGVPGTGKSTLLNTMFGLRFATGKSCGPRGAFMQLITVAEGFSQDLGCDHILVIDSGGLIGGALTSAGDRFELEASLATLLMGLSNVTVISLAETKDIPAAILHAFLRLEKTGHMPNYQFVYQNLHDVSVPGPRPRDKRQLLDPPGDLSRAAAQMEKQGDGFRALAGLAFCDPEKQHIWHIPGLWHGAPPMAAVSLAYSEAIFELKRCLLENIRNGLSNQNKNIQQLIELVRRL
# This is one part of the list. Most values lie at the level of the controls, where differences are scatter.
# Compound: CN[C@@H]1C[C@H]2O[C@@](C)([C@@H]1OC)n1c3ccccc3c3c4c(c5c6ccccc6n2c5c31)C(=O)NC4 [staurosporine]
# Assay: log2 fold change of tryptic peptide abundance, ligand vs vehicle (limited proteolysis) (log2 ratio); higher = more trypsin-susceptible (destabilized)
# Conditions: ligand concentration: 20 uM; sample: K562 cleared lysate; digestion: 4 min, 22 C (HT-PELSA RT4min, Orbitrap Astral)
row,Target,log2 fold change
1,"UniProt Q8WYL5 (peptide sequence: DPAATSKPSGKPAPENLK, peptide start residue: 1024)",-0.485
2,"UniProt Q8TD23 (peptide sequence: NVILENYR, peptide start residue: 31)",-0.138
3,"UniProt Q8WUQ7 (peptide sequence: KQQEELMK, peptide start residue: 151)",0.419
4,"RREB1 (peptide sequence: MVEDGQSGDLEKK, peptide start residue: 191) (UniProt Q92766)",-0.913
5,"RUFY2 (peptide sequence: LIEELAIAK, peptide start residue: 237) (UniProt Q8WXA3)",-0.205
6,"MIPOL1 (peptide sequence: DITHSYLEQETTGINK, peptide start residue: 7) (UniProt Q8TD10)",-0.397
7,"UBE2Q2 (peptide sequence: NGWYTPPKEDG, peptide start residue: 412) (UniProt Q8WVN8)",0.0301
8,"PRPF31 (peptide sequence: YFSSMAEFLK, peptide start residue: 479) (UniProt Q8WWY3)",-0.0965
9,"CHD6 (peptide sequence: ESFLAPVFTKDEQK, peptide start residue: 2163) (UniProt Q8TD26)",-0.31
10,"GTF2H4 (peptide sequence: NLQEFLGGLSPGVLDR, peptide start residue: 18) (UniProt Q92759)",0.323
11,"UniProt Q8TCY9 (peptide sequence: GHSDLGEVAPEIK, peptide start residue: 14)",0.492
